PubChem BioAssay AID1671195 – Yale University, 2021
The whole screen tested about 22,000 reagents; this is a part drawn at random. Over the whole deposit, about 1,510 (6.9%) were called active. 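Active includes knockdowns raising or lowering LDL uptake; positive z-scores mean more uptake, negative mean less.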 Reagent sequences are not shown.

Aim: 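Knockdowns that increase or decrease uptake of fluorescent LDL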 (primary screen)
System: human Huh7 hepatoma cells
Reagent: siRNA pool against human genes, 18 nM
Timing: about 2 to 2.5 days of knockdown, then 8 h LDL uptake
Conditions: DiI-labelled LDL at 30 µg/ml for 8 h, in lipoprotein-deficient serum medium
Measured: 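Per-cell DiI-LDL intensity by automated imaging; well means scaled to the plate median and given as a robust z-score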
Direction: robust z-score: higher = more LDL uptake after knockdown
Call rule: 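a gene counts as active if at least two replicate z-scores exceed ±2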

{"Gene":"PKD1L1-AS1 (GeneID 80099)","robust z-score, replicate 1":2.13,"robust z-score, replicate 2":2.11,"robust z-score, replicate 3":1.83,"Call":"active"}
{"Gene":"CFAP95 (GeneID 138255)","robust z-score, replicate 1":-0.289,"robust z-score, replicate 2":-0.974,"robust z-score, replicate 3":1.07,"Call":"inactive"}
{"Gene":"IRX2-DT (GeneID 153571)","robust z-score, replicate 1":1.46,"robust z-score, replicate 2":-0.121,"robust z-score, replicate 3":2.04,"Call":"inactive"}
{"Gene":"RPS18P7 (GeneID 133790)","robust z-score, replicate 1":0.476,"robust z-score, replicate 2":-0.0851,"robust z-score, replicate 3":0.585,"Call":"inactive"}
{"Gene":"KIF25-AS1 (GeneID 100505879)","robust z-score, replicate 1":0.48,"robust z-score, replicate 2":0.93,"robust z-score, replicate 3":0.193,"Call":"inactive"}
{"Gene":"CHMP3 (GeneID 51652)","robust z-score, replicate 1":-1.21,"robust z-score, replicate 2":0.511,"robust z-score, replicate 3":0.368,"Call":"inactive"}
{"Gene":"OXSR1 (GeneID 9943)","robust z-score, replicate 1":-0.151,"robust z-score, replicate 2":0.473,"robust z-score, replicate 3":0.0428,"Call":"inactive"}
{"Gene":"ZNF507 (GeneID 22847)","robust z-score, replicate 1":-0.469,"robust z-score, replicate 2":-0.128,"robust z-score, replicate 3":0.0563,"Call":"inactive"}
{"Gene":"GLOD4 (GeneID 51031)","robust z-score, replicate 1":-2.34,"robust z-score, replicate 2":-0.247,"robust z-score, replicate 3":0.0954,"Call":"inactive"}
{"Gene":"FOXJ2 (GeneID 55810)","robust z-score, replicate 1":0.121,"robust z-score, replicate 2":0.924,"robust z-score, replicate 3":1.62,"Call":"inactive"}
{"Gene":"LOC128208 (retired record) (GeneID 128208)","robust z-score, replicate 1":0.68,"robust z-score, replicate 2":-0.159,"robust z-score, replicate 3":1.8,"Call":"inactive"}
{"Gene":"LOC164036 (retired record) (GeneID 164036)","robust z-score, replicate 1":0.723,"robust z-score, replicate 2":0.988,"robust z-score, replicate 3":1.87,"Call":"inactive"}
{"Gene":"NMI (GeneID 9111)","robust z-score, replicate 1":1.3,"robust z-score, replicate 2":1.05,"robust z-score, replicate 3":0.753,"Call":"inactive"}

Records listed so far whose target name begins with C or c (2):
{"Gene":"CFAP95 (GeneID 138255)","robust z-score, replicate 1":-0.289,"robust z-score, replicate 2":-0.974,"robust z-score, replicate 3":1.07,"Call":"inactive"}
{"Gene":"CHMP3 (GeneID 51652)","robust z-score, replicate 1":-1.21,"robust z-score, replicate 2":0.511,"robust z-score, replicate 3":0.368,"Call":"inactive"}

Additional results follow.
{"Gene":"HIC2 (GeneID 23119)","robust z-score, replicate 1":-1.8,"robust z-score, replicate 2":-2.29,"robust z-score, replicate 3":-2.53,"Call":"active"}
{"Gene":"ZNF844 (GeneID 284391)","robust z-score, replicate 1":0.284,"robust z-score, replicate 2":0.0721,"robust z-score, replicate 3":0.156,"Call":"inactive"}
{"Gene":"CDC20B (GeneID 166979)","robust z-score, replicate 1":-1.01,"robust z-score, replicate 2":-0.736,"robust z-score, replicate 3":-0.772,"Call":"inactive"}
{"Gene":"PABPN1L (GeneID 390748)","robust z-score, replicate 1":1.04,"robust z-score, replicate 2":0.868,"robust z-score, replicate 3":1.47,"Call":"inactive"}
{"Gene":"SAGE4P (GeneID 442465)","robust z-score, replicate 1":-0.43,"robust z-score, replicate 2":-0.322,"robust z-score, replicate 3":-2.67,"Call":"inactive"}
{"Gene":"ZNF644 (GeneID 84146)","robust z-score, replicate 1":1.29,"robust z-score, replicate 2":0.769,"robust z-score, replicate 3":1.04,"Call":"inactive"}
{"Gene":"CTSB (GeneID 1508)","robust z-score, replicate 1":1.02,"robust z-score, replicate 2":1.43,"robust z-score, replicate 3":1.94,"Call":"inactive"}
{"Gene":"SEPTIN4 (GeneID 5414)","robust z-score, replicate 1":-0.0717,"robust z-score, replicate 2":-1.21,"robust z-score, replicate 3":-0.912,"Call":"inactive"}
{"Gene":"SLC35F6 (GeneID 54978)","robust z-score, replicate 1":-0.302,"robust z-score, replicate 2":0.508,"robust z-score, replicate 3":0.104,"Call":"inactive"}
{"Gene":"SPX (GeneID 80763)","robust z-score, replicate 1":-0.503,"robust z-score, replicate 2":-0.411,"robust z-score, replicate 3":-0.366,"Call":"inactive"}
{"Gene":"TP53I11 (GeneID 9537)","robust z-score, replicate 1":0.342,"robust z-score, replicate 2":-0.448,"robust z-score, replicate 3":0.0169,"Call":"inactive"}
